According to patent publication US10300069B2, “Carbon monoxide-releasing molecules for therapeutic applications and methods of making and using thereof” (Georgia State University Research Foundation, Inc., priority 2014, dated 2019):
At least one compound was matched to its structure with a doubt left.

Assay: Kinetics of the inverse-electron demand Diels-Alder reaction of TPCPD with BCN (UV-Vis)
Type: physicochemical

O=C1C(c2ccccc2)=C(c2ccccc2)C(c2ccccc2)=C1c1ccccc1 [TPCPD]
k2, second order rate constant of TPCPD with BCN (CH3CN, r.t.): 0.26 ± 0.004 M⁻¹ s⁻¹
k2, second order rate constant of TPCPD with BCN (DCE, r.t.): 0.17 ± 0.003 M⁻¹ s⁻¹
k2, second order rate constant of TPCPD with BCN (Dioxane, r.t.): 0.096 ± 0.001 M⁻¹ s⁻¹
increase of second order rate constant at 37° C. compared to room temperature, 23° C. (MeOH): about 2 fold
k2, second order rate constant of TPCPD with BCN (MeOH, 37° C.): 1.1 ± 0.002 M⁻¹ s⁻¹
k2, second order rate constant of TPCPD with BCN (MeOH, r.t.): 0.50 ± 0.01 M⁻¹ s⁻¹
k2, second order rate constant of TPCPD with BCN (MeOH, r.t., listed as TPPD): 0.50 M⁻¹ s⁻¹
